Assay results taken from PubChem BioAssay AID1794845 (National Center for Advancing Translational Sciences (NCATS), 2023).
Among all 6,900 compounds or so, fewer than 10 were called active. Calls come from the whole dose curve; as a rule, active = well fitted curve in the direction sought with a large enough effect; inconclusive = small, poorly fitted or top-dose-only effect, or another doubt; inactive = no such curve, though single readings can be large or run the other way. The list shows a part of the results.

Protein sequences, listed by entry. Tags and fused reporters are not part of them. Lines headed by an entry give the natural chain unless they say otherwise; changes in a name come on top.
UniProt C7C422: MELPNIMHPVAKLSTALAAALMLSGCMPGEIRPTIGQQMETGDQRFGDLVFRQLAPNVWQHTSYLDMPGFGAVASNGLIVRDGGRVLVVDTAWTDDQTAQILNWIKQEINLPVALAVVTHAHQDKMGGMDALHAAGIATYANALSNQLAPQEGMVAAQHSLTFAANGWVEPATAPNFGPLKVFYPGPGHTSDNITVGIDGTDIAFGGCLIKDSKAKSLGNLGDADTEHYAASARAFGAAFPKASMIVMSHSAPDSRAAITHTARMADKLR

These compounds were tested against Metallo-beta-lactamase type 2 (Klebsiella pneumoniae) (UniProt C7C422) (assay: qHTS to identify inhibitors of the New Delhi Metallo-beta-lactamase (NDM): primary screen against the NCATS Gemini Collection). Settings: NDM-1 enzyme, meropenem hydrolysis, absorbance 300 nm; at 38.4 µM (top of the series) unless noted.
In short: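 Meropenem hydrolysis (50 uM final) by 2 nM NDM-1 read as 300 nm absorbance after 30 min, following >30 min compound–enzyme preincubation in HEPES pH 7.0 with 1 uM ZnSO4 and 0.01% Tween20.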
Note: % of control where 0% means no effect.

Activity % (negative = inhibition), inactive:
Cc1ccc(C(=O)N2CCc3nc(-c4cn[nH]c4)[nH]c3C2)cc1N1CCNC1=O 7.05%
CCOC(=O)C[C@@H]1C[C@@H](C(C)C)[C@H](CNS(=O)(=O)c2ccccc2)C=C1C -0.0066% [at 57.5 µM]
Cc1noc(C)c1-c1cc2c(c(-c3ccccc3Oc3ccccc3)c1)C(=O)N(C)C2 -2.01% [at 57.5 µM]
O=C1NCC2(CCCN(C(=O)c3cn[nH]c3-n3cnnn3)C2)O1 (stereo not drawn) -0.435%
O=C1NCCOCCCN(C(=O)CC2CCCC2)[C@H]2CCC[C@@H]12 -2.15%
O=C(c1n[nH]c2ccccc12)N1CCCC1c1nc(CCOCC2CCOCC2)no1 (stereo not drawn) 0.0142%
CC(C)CC(=O)NC[C@@H]1C[C@H](F)CN1C(=O)CCCc1cccs1 35.9%
NC(=O)NCC(=O)N1CC[C@@H]2[C@@H](CCC(=O)N2CCc2ccccn2)C1 -1.6%
Cc1cccc(C)c1-c1nc(C(=O)N2CCN(c3ncccn3)CC2)n2ccccc12 12.3%
O=C(CCc1ccc2c(c1)OCO2)N[C@H](c1ccccn1)C1CC(O)C1 (stereo partly drawn) -3.06%
O=C1NCc2ccccc2CC12CCN(Cc1ccsc1)C2 (stereo not drawn) -1.5%
COC1(c2ccccc2)CCN(C(=O)C2CCCN(C(=O)N(C)C)C2)CC1 (stereo not drawn) -2.06%
C=CCc1ccccc1OCCN(C)Cc1cc2ccc(F)cc2[nH]c1=O -0.29%
O=C(O)c1cccnc1CN1CCCC(c2nc(-c3ccccc3)no2)C1 (stereo not drawn) 3.52%
COCCOCc1nc(C2CCCCN2C(=O)c2ccncc2)no1 (stereo not drawn) -0.919%
C#CCN(C)Cc1nc(C2(O)CCN(C(=O)c3ccccc3F)CC2)cs1 -4.21% [at 57.5 µM]
C[S+](=O)([O-])N1CC2(CCCN2CC2CC2)Cc2ccccc21 (stereo not drawn) 5.85%
CN1Cc2ncnc(N3CCC(c4ccccc4)CC3)c2CN(c2ccccc2)C1=O 8.67%
Fc1ccccc1CN1CCC[C@H]1c1nc(-c2ccnc(N3CCOCC3)c2)no1 -5.98% [at 57.5 µM]
CN1CC(c2ccccc2)CC2(CCN(C(=O)c3ccccc3)CC2)C1 (stereo not drawn) 7.74%
CCn1ccnc1CN(C)Cc1cn(-c2ccccc2C)nc1-c1ccc(OC)c(F)c1 -3.73%
c1ccc(-c2nc(C3CC3)no2)c(OC2CCNC2)c1 (stereo not drawn) -1.06%
COc1ccc(CNC(=O)CC[C@]23CC[C@](C)(O)C[C@H]2C(C)(C)C[C@@H]3NC2CCOCC2)cc1 -1.94%
COc1ccc(-c2nc(C(C)C)nc3c2CCN([S+](=O)([O-])c2c(C)noc2C)CC3)cc1 1.53%
COc1nc2nc(CCc3ccccc3)n(C)c2cc1-c1cncnc1 4.81% [at 57.5 µM]
CC(C)C(=O)N1CCN(CCn2nc3n(c2=O)CCCC3)CC1 1.52% [at 57.5 µM]
O=C1C[C@H]2CC[C@@H](CN1)N2Cc1ccc(OCc2ccccc2)cc1 28.7%
Cc1nc2c(c(-c3ccc(Cl)cc3)n1)CCN(C(=O)Cc1cccc(Cl)c1)CC2 0.848%
CCC(=O)N1CCC(n2nccc2NC(=O)Nc2ccccc2Cl)CC1 -3.68%
COc1ccc(C(=O)Nc2ccc([C@H]3OCC(=O)N[C@@H]3CO)cc2)cc1 8.38% [at 57.5 µM]
O[C@@H]1CO[C@H]2[C@@H]1OC[C@@H]2n1nnnc1SCc1ccco1 1.89% [at 57.5 µM]
CCn1ccnc1CN1CCC(Oc2ccccc2OC)(C(=O)O)CC1 -4.14%
CC(=O)c1ccc(C(=O)N[C@H]2COC[C@H]2Cc2cc(C)no2)s1 19.4%
O=C(NCCC1=CCCCC1)c1c(-c2cncnc2)cc(=O)n2c1CCCC2 4.8%
C[C@@H]1CN(C(=O)CN2CCN(c3ncccn3)CC2)C[C@@]1(O)C1CCC1 14.1%
CC(C)n1cc2cc(C(=O)O)sc2c1 1.68%
CC(C)COC(=O)N1CCCn2nc(-c3nc4ccccc4n3C)cc2C1 10.1%
O=C1NC2(CCN(Cc3cncs3)C2)OCc2ccccc21 (stereo not drawn) 1.82% [at 57.5 µM]
CCNC(=O)N1CCC(NC(=O)c2cccc(CCC(C)(C)O)c2)CC1 0.933%
Cc1nccn1CCCC(=O)N1CC[C@](C)(O)[C@H](C)C1 -4.47%
CC(C)NC(=O)N1CCN(S(C)(=O)=O)[C@@H](C(=O)N[C@H](Cc2c[nH]c3ccccc23)C(N)=O)C1 1.44%
O=C(CN1C(=O)NC2(CCCCC2)C1=O)Nc1ccc2c(c1)OCCO2 5.44%
Cc1cc(CN(C)C(=O)c2cc(COc3ccc(F)cc3F)on2)n[nH]1 0.31%
CN(C)c1ccc(C(=O)N[C@H]2CC(C)(C)[C@@H]3C[C@@](C)(O)CC[C@]23CCC(=O)NC2CC2)cc1 14.2%
CC1=C(C(=O)N2CCC(CCC(=O)Nc3ccc4c(c3)OCCO4)CC2)OCCO1 2.33%
COc1ccc(-c2ccnc(N[C@H]3CO[C@H]4[C@@H]3OC[C@@H]4NC(=O)Nc3ccc(C(C)=O)cc3)n2)cc1 24.9%
O=C([C@H]1O[C@H](CCN2CCC(CO)CC2)CC[C@@H]1O)N1CCN(c2ccccc2)CC1 44.8% [at 57.5 µM]
CCCOCCc1nc2c([nH]1)CC(C)(C)CNC2=O 2.5%
CC(NCc1cn(CCC(N)=O)c2ccccc12)c1ccccc1-n1cccn1 (stereo not drawn) 4.83%
CS(=O)(=O)N1CCc2ccc(C(=O)NCc3ccc(OC(F)(F)F)cc3)cc21 1.01%
CCOc1cccc(CN2CC(C(=O)NCc3ccncc3)C3(CCOCC3)C2)c1 (stereo not drawn) 0.0153%
CN(C(=O)c1ccc(Cl)nc1)C1CCCc2ccccc21 (stereo not drawn) 0.052% [at 57.5 µM]
COc1cccc(C(CC(=O)NCC(C)C)c2c[nH]c3ccccc23)c1 (stereo not drawn) -0.66%
Cc1cc(C)n(-c2cccc(CN(C)C(=O)Cn3nnnc3CN3CCOCC3)c2)n1 8.71%
COCCn1c(C)cnc1CCNC(=O)Cc1cccc(F)c1 -8.02%
O=C1NCCOCCN(C(=O)Nc2ccc3c(c2)OCCO3)[C@@H]2CCCC[C@H]12 0.0197%
COc1ccc(CCNC(=O)C(C)C2CCOCC2)cc1OC (stereo not drawn) -1.32%
CC(=O)NC1CCN(C(=O)c2coc(COc3cccc(C(F)(F)F)c3)n2)C1 (stereo not drawn) -1.01%
CC(C)=CCC1(CO)CCCN(Cc2csc(C)n2)C1 (stereo not drawn) 5.23%
CC[C@H]1CN(C(=O)N2CCOCC2)CC[C@H]1CC(=O)NCCOC -9.61% [at 57.5 µM]
C[S+](=O)([O-])N1CC2(CCCN2CC2CCCCC2)Cc2ccccc21 (stereo not drawn) 60.9%
Cc1ccccc1-c1nccc2c(=O)cc(C3=CCOCC3)oc12 15.4% [at 57.5 µM]
O=C(NCCN1CCCC1)C1CCN(c2cnn(CC3CC3)c(=O)c2)C1 (stereo not drawn) 8.77%
CN(Cc1ccccc1)Cc1cc(C[C@H]2CNCC[C@H]2CC(=O)NCc2cccs2)no1 3.64%
O=C(NC1CN(c2ccnc3ccnn23)C1)c1ccc(Cl)nc1 -1.91%
Cn1cccc1CN1CCC(N2CCNC2=O)CC1 -0.0953% [at 57.5 µM]
CSCCC(=O)N1CCc2[nH]nc(-c3ccc(C(F)(F)F)cc3)c2C1 -0.0331%
CCN(CCc1nc2ccc(C)cc2[nH]1)C(=O)c1ccccc1C1CCNC1 (stereo not drawn) 24.5%
CCc1cc(=O)n(CC(=O)NCc2ccc(OC)c(OC)c2)c(-c2ccccc2)n1 52.1%
COc1ccc(F)cc1-c1ccc(CN2CCC(NC(=O)c3ccc(Cl)cc3)C2)cc1 (stereo not drawn) -3.12%
Cc1noc(C)c1Cc1ccc(C(=O)N2CCCCCCNC(=O)[C@@H]3CCCC[C@@H]32)o1 2.9%
Fc1ccccc1CN1CCOC[C@H](Oc2cccnc2)C1 -5.58% [at 57.5 µM]
COc1cc(SC)ccc1C(=O)N[C@H]1CCN2C(=O)[C@@H](CC(=O)O)NC(=O)[C@@H]2C1 9.12% [at 57.5 µM]
CCNC(=O)[C@@H]1C[C@H](NC(=O)c2ccc(CO)o2)CN1Cc1nccs1 28.6%
CC1=C(C(=O)Nc2ccccc2)C(c2cc(C)ccc2C)N2C(CC(=O)NC(C)C)=CSC2=N1 (stereo not drawn) 12.5%
N#Cc1cccc(N2CCN(Cc3ccc(F)c(Cl)c3F)CC2)n1 1.43%
Cc1noc(C)c1-c1cc(-c2cccc3cc[nH]c23)cn2cncc12 11.6% [at 57.5 µM]
CCC(C)(C)C(=O)N1CCC(N2C(=O)CCC2C(=O)NC(C)C)CC1 (stereo not drawn) 5.87%
CN(C)[C@@H]1CN(C(=O)CCc2ccccc2)C[C@H]1CO 50.7%
O=C(CCCc1nc2ccccc2s1)N1CCc2nc3cc(-c4ccccc4)[nH]n3c(=O)c2C1 60.1%
OCCN1CCN(c2ccc(-c3nc(-c4cccc(C(F)(F)F)c4)no3)cn2)CC1 13.3%
Cc1nnc([C@H]2CCN(Cc3ncc[nH]3)C2)o1 -0.788% [at 77.1 µM]
Cc1c(C(=O)N(C)Cc2cc(-c3cccnc3)no2)oc2c(F)cccc12 2.92%

Four entries from above, arranged by formula weight, rising.
Activity % (negative = inhibition), inactive:
Cc1nccn1CCCC(=O)N1CC[C@](C)(O)[C@H](C)C1 -4.47%
Cc1c(C(=O)N(C)Cc2cc(-c3cccnc3)no2)oc2c(F)cccc12 2.92%
CC(=O)NC1CCN(C(=O)c2coc(COc3cccc(C(F)(F)F)c3)n2)C1 (stereo not drawn) -1.01%
O=C(CCCc1nc2ccccc2s1)N1CCc2nc3cc(-c4ccccc4)[nH]n3c(=O)c2C1 60.1%

Quoted at random: two entries already listed, in no set order.
Activity % (negative = inhibition), inactive:
C#CCN(C)Cc1nc(C2(O)CCN(C(=O)c3ccccc3F)CC2)cs1 -4.21% [at 57.5 µM]
O=C(O)c1cccnc1CN1CCCC(c2nc(-c3ccccc3)no2)C1 (stereo not drawn) 3.52%
